Laboratory results taken from patent publication US20240293565A1 (BEIJING SINOTAU BIO PHARMACEUTICALS TECHNOLOGY, published 2024).
Numbering of substitutions follows the chain as printed. These are yes or no findings as the source states them, for the method shown. Some entries that bind do so weakly or less than the wild type.

Protein sequences, listed by entry. Tags and fused reporters are not part of them. Lines headed by an entry give the natural chain unless they say otherwise; changes in a name come on top. Chains listed by the source or under a name are the forms on record and can include a tag or linker. Residues count along the entry.
UniProt P21860, residues 20-643: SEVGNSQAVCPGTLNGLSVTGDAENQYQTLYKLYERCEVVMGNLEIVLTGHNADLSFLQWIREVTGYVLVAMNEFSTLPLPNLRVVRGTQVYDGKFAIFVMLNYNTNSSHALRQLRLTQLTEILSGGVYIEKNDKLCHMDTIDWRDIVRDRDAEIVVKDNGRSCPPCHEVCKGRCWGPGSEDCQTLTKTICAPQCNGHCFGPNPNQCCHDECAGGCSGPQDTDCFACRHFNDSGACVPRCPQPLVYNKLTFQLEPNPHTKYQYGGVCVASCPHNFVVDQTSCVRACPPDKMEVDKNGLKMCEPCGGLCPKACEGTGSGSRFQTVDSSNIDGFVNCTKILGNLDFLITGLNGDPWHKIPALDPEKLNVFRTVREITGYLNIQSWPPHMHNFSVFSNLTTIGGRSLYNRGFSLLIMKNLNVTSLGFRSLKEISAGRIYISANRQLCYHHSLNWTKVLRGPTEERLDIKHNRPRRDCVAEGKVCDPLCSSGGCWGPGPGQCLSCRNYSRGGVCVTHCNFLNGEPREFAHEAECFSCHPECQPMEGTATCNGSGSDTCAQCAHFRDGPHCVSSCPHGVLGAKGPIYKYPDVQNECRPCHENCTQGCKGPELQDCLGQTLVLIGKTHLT
Cynomolgus HER3 (G7PIG5, form named): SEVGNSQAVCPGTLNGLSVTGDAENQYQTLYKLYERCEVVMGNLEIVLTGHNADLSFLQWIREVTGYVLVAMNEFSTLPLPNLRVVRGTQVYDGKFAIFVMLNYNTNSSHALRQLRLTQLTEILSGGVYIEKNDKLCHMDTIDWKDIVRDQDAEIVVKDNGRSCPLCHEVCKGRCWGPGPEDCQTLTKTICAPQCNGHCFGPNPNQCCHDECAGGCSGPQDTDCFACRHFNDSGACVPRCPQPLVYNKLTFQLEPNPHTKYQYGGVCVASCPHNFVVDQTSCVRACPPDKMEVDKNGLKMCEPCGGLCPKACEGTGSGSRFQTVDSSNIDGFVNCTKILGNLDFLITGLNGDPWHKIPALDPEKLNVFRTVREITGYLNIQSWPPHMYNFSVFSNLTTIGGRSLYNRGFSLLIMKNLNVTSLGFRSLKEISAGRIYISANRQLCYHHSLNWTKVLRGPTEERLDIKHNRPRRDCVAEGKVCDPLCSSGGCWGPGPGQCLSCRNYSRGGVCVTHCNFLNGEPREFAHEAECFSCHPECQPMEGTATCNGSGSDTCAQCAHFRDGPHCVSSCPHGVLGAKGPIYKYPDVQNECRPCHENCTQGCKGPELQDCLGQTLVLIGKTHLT

Assays:
Human HER3-huFc (human) [1] = target: Human HER3-huFc (human) (UniProt P21860); test: ELISA on HER3, chimeric antibody measured in parallel with the heat stress test
Human HER3-huFc (human) [2] = target: Human HER3-huFc (human) (UniProt P21860); test: ELISA on HER3, chimeric antibody measured in parallel with the freeze-thaw stress test
Human HER3-huFc (human) [3] = target: Human HER3-huFc (human) (UniProt P21860); test: summary of the ELISA results
[4] = target: Cynomolgus HER3 (Cynomolgus) (UniProt G7PIG5); test: summary of the ELISA results
[5] = target: Cynomolgus HER3 (Cynomolgus) (UniProt G7PIG5); test: ELISA on coated cynomolgus HER3, luminescence readout
Human HER3-huFc (human) [6] = target: Human HER3-huFc (human) (UniProt P21860); test: ELISA on coated Human HER3-huFc, luminescence readout
Human HER3-huFc (human) [7] = target: Human HER3-huFc (human) (UniProt P21860); test: ELISA on coated human HER3, luminescence readout
Human HER3-huFc (human) [8] = target: Human HER3-huFc (human) (UniProt P21860); test: ELISA on coated antigen
[9] = target: Cynomolgus HER3 (Cynomolgus) (UniProt G7PIG5); test: ELISA on coated antigen
Human HER3-huFc (human) [10] = target: Human HER3-huFc (human) (UniProt P21860); test: ELISA on HER3 after incubation of the antibody at pH 3.5 for 0, 2, 4, 6 h
Human HER3-huFc (human) [11] = target: Human HER3-huFc (human) (UniProt P21860); test: ELISA on HER3 after incubation of the antibody at 40 C for 0, 7, 14 days
Human HER3-huFc (human) [12] = target: Human HER3-huFc (human) (UniProt P21860); test: ELISA on HER3 after 0, 3, 5 cycles of freezing and thawing of the antibody

Measured: binding

B1: chimeric 3F8 (antibody, human IgG1, V domains shown)
VH: DVQLQESGPGLVKPSQSLSLTCSVTGYSITSAYYWNWIRQFPGDKLEWMGYISYDGRNNFNPSLKNRISITRDTSKNQFFLKLNSVTSGDTATYYCARDGDYDYFDYWGQGTTLTVSS
VL: DIQMTQTTSSLSASLGDRVTISCRASQDISNYLNWYQQKPDGTFKLLIYYTSILHSGVPSRFSGSGSGTDYSLTISNLEQEDIATYFCQQGDTLPPTFGAGTKLELK
notes: also called ch3F8; Ch3F8
binds: Human HER3-huFc (human) [1] | Human HER3-huFc (human) [2]

B2: murine 3F8 (antibody, V domains shown)
VH: B1 VH
VL: B1 VL
binds: Human HER3-huFc (human) [3] | [4] | [5] | Human HER3-huFc (human) [6] | Human HER3-huFc (human) [7] | Human HER3-huFc (human) [8] | [9]

B3: humanized 3F8 Clone 3 (antibody, human IgG1, kappa, V domains shown)
VH: QVQLQESGPGLVKPSETLSLTCTVSGYSITSAYYWNWIRQPFGKGLEWMGYISYDGRNNFNPSLKNRVSISRDTSKNQFSLKLSSVTAADTATYYCARDGDYDYFDYWGQGTTVTVSS
VL: DIQMTQSPSSLSASVGDRVTITCRASQDISNYLNWYQQKPGKAPKLLIYYTSILHSGVPSRFSGSGSGTDYTFTISSLQPEDIATYFCQQGDTLPPTFGGGTKLEIKR
binds: Human HER3-huFc (human) [10] | Human HER3-huFc (human) [11] | Human HER3-huFc (human) [12]

B4: humanized 3F8 Clone 2 (antibody, human IgG1, kappa, V domains shown)
VH: B3 VH with S69T, T93V
VL: B3 VL
binds: Human HER3-huFc (human) [10] | Human HER3-huFc (human) [11] | Human HER3-huFc (human) [12]

B5: humanized 3F8 Clone 1 (antibody, human IgG1, kappa, V domains shown)
VH: B3 VH with F42P, M49I, S69T, R72V, T93V
VL: B3 VL
binds: Human HER3-huFc (human) [10] | Human HER3-huFc (human) [11] | Human HER3-huFc (human) [12]
